Reference: PubChem BioAssay AID652272 (Drosophila RNAi Screening Center, 2013)
The deposit covers about 21,000 reagents; below is an unselected part of those with a known target gene and a result. Over the whole deposit, 503 (2.4%) were called active. 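Raw plate light values, not normalised; calls rest on replicate z-scores that were not deposited; hits include reporter decreases as well as increases.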 Reagents against one gene are numbered here. No sequences are given here. The record does not give: the amount of reagent, the time to read-out.

Aim: 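Finding fly genes that regulate Hedgehog signal transduction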 (primary screen)
Cell system: Drosophila clone 8 (Cl8) cells
Reagents: long dsRNA against Drosophila genes
Measured: 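Plate reader light from a firefly reporter under a ptc promoter fragment that responds to Hedgehog, with Renilla light as transfection reference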
Reading the numbers: firefly Hh reporter signal: higher = more ptc reporter light; Renilla reference signal: higher = more Renilla control light
Hit rule: 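Hit when the z-score averaged over two replicates is under -2 or over +3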
Meaning of the calls: active = hit: reporter lowered or raised; inactive = not a hit

tai (taiman) #1 → firefly Hh reporter signal, replicate 1: 37872; firefly Hh reporter signal, replicate 2: 15953; Renilla reference signal, replicate 1: 1376; Renilla reference signal, replicate 2: 1803; activity call: inactive
tai (taiman) #2 → firefly Hh reporter signal, replicate 1: 94240; firefly Hh reporter signal, replicate 2: 55675; Renilla reference signal, replicate 1: 2210; Renilla reference signal, replicate 2: 3575; activity call: inactive
CG14810 #1 → firefly Hh reporter signal, replicate 1: 3.64e5; firefly Hh reporter signal, replicate 2: 97392; Renilla reference signal, replicate 1: 21059; Renilla reference signal, replicate 2: 2726; activity call: inactive
CG14810 #2 → firefly Hh reporter signal, replicate 1: 88512; firefly Hh reporter signal, replicate 2: 2.12e5; Renilla reference signal, replicate 1: 2585; Renilla reference signal, replicate 2: 7522; activity call: inactive
CG5860 → firefly Hh reporter signal, replicate 1: 66214; firefly Hh reporter signal, replicate 2: 1.17e5; Renilla reference signal, replicate 1: 1121; Renilla reference signal, replicate 2: 3089; activity call: inactive
Burs (Bursicon) → firefly Hh reporter signal, replicate 1: 8.50e5; firefly Hh reporter signal, replicate 2: 1.69e5; Renilla reference signal, replicate 1: 40640; Renilla reference signal, replicate 2: 3040; activity call: inactive
Inx2 (Innexin 2) → firefly Hh reporter signal, replicate 1: 1.07e5; firefly Hh reporter signal, replicate 2: 86563; Renilla reference signal, replicate 1: 2740; Renilla reference signal, replicate 2: 2269; activity call: inactive
Kcmf1 (Potassium channel modulatory factor 1) → firefly Hh reporter signal, replicate 1: 75703; firefly Hh reporter signal, replicate 2: 76465; Renilla reference signal, replicate 1: 3785; Renilla reference signal, replicate 2: 3600; activity call: inactive
nompC (no mechanoreceptor potential C) → firefly Hh reporter signal, replicate 1: 78759; firefly Hh reporter signal, replicate 2: 56342; Renilla reference signal, replicate 1: 1259; Renilla reference signal, replicate 2: 5885; activity call: inactive
CG4962 → firefly Hh reporter signal, replicate 1: 1.18e5; Renilla reference signal, replicate 1: 2481; Renilla reference signal, replicate 2: 3355; activity call: inactive
FANCI (Fanconi anemia complementation group I) → firefly Hh reporter signal, replicate 1: 90640; firefly Hh reporter signal, replicate 2: 68688; Renilla reference signal, replicate 1: 2242; Renilla reference signal, replicate 2: 5561; activity call: inactive
CG10962 → firefly Hh reporter signal, replicate 1: 56549; firefly Hh reporter signal, replicate 2: 97505; Renilla reference signal, replicate 1: 1533; Renilla reference signal, replicate 2: 2204; activity call: inactive
MESK2 (Misexpression suppressor of KSR 2) → firefly Hh reporter signal, replicate 1: 67859; firefly Hh reporter signal, replicate 2: 66646; Renilla reference signal, replicate 1: 1990; Renilla reference signal, replicate 2: 5957; activity call: inactive
CG13033 → firefly Hh reporter signal, replicate 1: 1.09e5; Renilla reference signal, replicate 1: 197; Renilla reference signal, replicate 2: 3541; activity call: inactive
Recs1 → firefly Hh reporter signal, replicate 1: 98227; firefly Hh reporter signal, replicate 2: 84726; Renilla reference signal, replicate 1: 2528; Renilla reference signal, replicate 2: 2210; activity call: inactive
kat80 (katanin 80) #1 → firefly Hh reporter signal, replicate 1: 1.09e5; firefly Hh reporter signal, replicate 2: 3.41e5; Renilla reference signal, replicate 1: 4020; Renilla reference signal, replicate 2: 11312; activity call: inactive
kat80 (katanin 80) #2 → firefly Hh reporter signal, replicate 1: 86074; firefly Hh reporter signal, replicate 2: 2.30e5; Renilla reference signal, replicate 1: 3400; Renilla reference signal, replicate 2: 8615; activity call: inactive
Gpdh3 (Glycerol-3-phosphate dehydrogenase 3) → firefly Hh reporter signal, replicate 1: 9.79e5; firefly Hh reporter signal, replicate 2: 1.95e5; Renilla reference signal, replicate 1: 43491; Renilla reference signal, replicate 2: 4987; activity call: inactive
qkr58E-3 (quaking related 58E-3) → firefly Hh reporter signal, replicate 1: 97637; firefly Hh reporter signal, replicate 2: 85021; Renilla reference signal, replicate 1: 3796; Renilla reference signal, replicate 2: 2979; activity call: inactive
CG13603 → firefly Hh reporter signal, replicate 1: 66154; firefly Hh reporter signal, replicate 2: 71174; Renilla reference signal, replicate 1: 3163; Renilla reference signal, replicate 2: 2971; activity call: inactive
CG17186 → firefly Hh reporter signal, replicate 1: 5.94e5; firefly Hh reporter signal, replicate 2: 1.17e5; Renilla reference signal, replicate 1: 31145; Renilla reference signal, replicate 2: 3395; activity call: inactive

Quoted from above for reference:
CG13603 → firefly Hh reporter signal, replicate 1: 66154; firefly Hh reporter signal, replicate 2: 71174; Renilla reference signal, replicate 1: 3163; Renilla reference signal, replicate 2: 2971; activity call: inactive
CG17186 → firefly Hh reporter signal, replicate 1: 5.94e5; firefly Hh reporter signal, replicate 2: 1.17e5; Renilla reference signal, replicate 1: 31145; Renilla reference signal, replicate 2: 3395; activity call: inactive
